Assay results taken from publication PMC4673504.
No constants are given. Whether binding was seen depends on the method and setting. In cells and extracts the contact can be indirect. Binding calls can cover weak binding; strength is not graded here. For part of these data: Where a sequence is shown, tags or fusion partners need not be part of it.

B1: Xpress-tagged TAF1A (protein, UniProt Q15573 1-450)
chain: MSDFSEELKGPVTDDEEVETSVLSGAGMHFPWLQTYVETVAIGGKRRKDFAQTTSACLSFIQEALLKHQWQQAAEYMYSYFQTLEDSDSYKRQAAPEIIWKLGSEILFYHPKSNMESFNTFANRMKNIGVMNYLKISLQHALYLLHHGMLKDAKRNLSEAETWRHGENTSSREILINLIQAYKGLLQYYTWSEKKMELSKLDKDDYAYNAVAQDVFNHSWKTSANISALIKIPGVWDPFVKSYVEMLEFYGDRDGAQEVLTNYAYDEKFPSNPNAHIYLYNFLKRQKAPRSKLISVLKILYQIVPSHKLMLEFHTLLRKSEKEEHRKLGLEVLFGVLDFAGCTKNITAWKYLAKYLKNILMGNHLAWVQEEWNSRKNWWPGFHFSYFWAKSDWKEDTALACEKAFVAGLLLGKGCRYFRYILKQDHQILGKKIKRMKRSVKKYSIVNPRL
B2: Xpress-tagged TAF1D (protein, UniProt Q9H5J8 1-278)
chain: MDKSGIDSLDHVTSDAVELANRSDNSSDSSLFKTQCIPYSPKGEKRNPIRKFVRTPESVHASDSSSDSSFEPIPLTIKAIFERFKNRKKRYKKKKKRRYQPTGRPRGRPEGRRNPIYSLIDKKKQFRSRGSGFPFLESENEKNAPWRKILTFEQAVARGFFNYIEKLKYEHHLKESLKQMNVGEDLENEDFDSRRYKFLDDDGSISPIEESTAEDEDATHLEDNECDIKLAGDSFIVSSEFPVRLSVYLEEEDITEEAALSKKRATKAKNTGQRGLKM
B3: HA-tagged TAF1C (protein, UniProt Q15572 1-869)
chain: MDFPSSLRPALFLTGPLGLSDVPDLSFMCSWRDALTLPEAQPQNSENGALHVTKDLLWEPATPGPLPMLPPLIDPWDPGLTARDLLFRGGCRYRKRPRVVLDVTEQISRFLLDHGDVAFAPLGKLMLENFKLEGAGSRTKKKTVVSVKKLLQDLGGHQPWGCPWAYLSNRQRRFSILGGPILGTSVASHLAELLHEELVLRWEQLLLDEACTGGALAWVPGRTPQFGQLVYPAGGAQDRLHFQEVVLTPGDNPQFLGKPGRIQLQGPVRQVVTCTVQGESKALIYTFLPHWLTCYLTPGPFHPSSALLAVRSDYHCAVWKFGKQWQPTLLQAMQVEKGATGISLSPHLPGELAICSRSGAVCLWSPEDGLRQIYRDPETLVFRDSSSWRWADFTAHPRVLTVGDRTGVKMLDTQGPPGCGLLLFRLGAEASCQKGERVLLTQYLGHSSPKCLPPTLHLVCTQFSLYLVDERLPLVPMLKWNHGLPSPLLLARLLPPPRPSCVQPLLLGGQGGQLQLLHLAGEGASVPRLAGPPQSLPSRIDSLPAFPLLEPKIQWRLQERLKAPTIGLAAVVPPLPSAPTPGLVLFQLSAAGDVFYQQLRPQVDSSLRRDAGPPGDTQPDCHAPTASWTSQDTAGCSQWLKALLKVPLAPPVWTAPTFTHRQMLGSTELRREEEEGQRLGVLRKAMARGQLLLQRDLGSLPAAEPPPAPESGLEDKLSERLGEAWAGRGAAWWERQQGRTSEPGRQTRRPKRRTQLSSSFSLSGHVDPSEDTSSPHSPEWPPADALPLPPTTPPSQELTPDACAQGVPSEQRQMLRDYMAKLPPQRDTPGCATTPPHSQASSVRATRSQQHTPVLSSSQPLRKKPRMGF
B4: TAF1C (endogenous) (protein, UniProt Q15572 1-869)
chain: MDFPSSLRPALFLTGPLGLSDVPDLSFMCSWRDALTLPEAQPQNSENGALHVTKDLLWEPATPGPLPMLPPLIDPWDPGLTARDLLFRGGCRYRKRPRVVLDVTEQISRFLLDHGDVAFAPLGKLMLENFKLEGAGSRTKKKTVVSVKKLLQDLGGHQPWGCPWAYLSNRQRRFSILGGPILGTSVASHLAELLHEELVLRWEQLLLDEACTGGALAWVPGRTPQFGQLVYPAGGAQDRLHFQEVVLTPGDNPQFLGKPGRIQLQGPVRQVVTCTVQGESKALIYTFLPHWLTCYLTPGPFHPSSALLAVRSDYHCAVWKFGKQWQPTLLQAMQVEKGATGISLSPHLPGELAICSRSGAVCLWSPEDGLRQIYRDPETLVFRDSSSWRWADFTAHPRVLTVGDRTGVKMLDTQGPPGCGLLLFRLGAEASCQKGERVLLTQYLGHSSPKCLPPTLHLVCTQFSLYLVDERLPLVPMLKWNHGLPSPLLLARLLPPPRPSCVQPLLLGGQGGQLQLLHLAGEGASVPRLAGPPQSLPSRIDSLPAFPLLEPKIQWRLQERLKAPTIGLAAVVPPLPSAPTPGLVLFQLSAAGDVFYQQLRPQVDSSLRRDAGPPGDTQPDCHAPTASWTSQDTAGCSQWLKALLKVPLAPPVWTAPTFTHRQMLGSTELRREEEEGQRLGVLRKAMARGQLLLQRDLGSLPAAEPPPAPESGLEDKLSERLGEAWAGRGAAWWERQQGRTSEPGRQTRRPKRRTQLSSSFSLSGHVDPSEDTSSPHSPEWPPADALPLPPTTPPSQELTPDACAQGVPSEQRQMLRDYMAKLPPQRDTPGCATTPPHSQASSVRATRSQQHTPVLSSSQPLRKKPRMGF
B5: Xpress-tagged TAF1B (protein, UniProt Q53T94 1-588)
chain: MDLEEAEEFKERCTQCAAVSWGLTDEGKYYCTSCHNVTERYQEVTNTDLIPNTQIKALNRGLKKKNNTEKGWDWYVCEGFQYILYQQAEALKNLGVGPELKNDVLHNFWKRYLQKSKQAYCKNPVYTTGRKPTVLEDNLSHSDWASEPELLSDVSCPPFLESGAESQSDIHTRKPFPVSKASQSETSVCSGSLDGVEYSQRKEKGIVKMTMPQTLAFCYLSLLWQREAITLSDLLRFVEEDHIPYINAFQHFPEQMKLYGRDRGIFGIESWPDYEDIYKKTVEVGTFLDLPRFPDITEDCYLHPNILCMKYLMEVNLPDEMHSLTCHVVKMTGMGEVDFLTFDPIAKMAKTVKYDVQAVAIIVVVLKLLFLLDDSFEWSLSNLAEKHNEKNKKDKPWFDFRKWYQIMKKAFDEKKQKWEEARAKYLWKSEKPLYYSFVDKPVAYKKREMVVNLQKQFSTLVESTATAGKKSPSSFQFNWTEEDTDRTCFHGHSLQGVLKEKGQSLLTKNSLYWLSTQKFCRCYCTHVTTYEESNYSLSYQFILNLFSFLLRIKTSLLHEEVSLVEKKLFEKKYSVKRKKSRSKKVRRH
B6: Eleven-nineteen lysine-rich leukemia protein (ELL) (protein, UniProt P55199 1-621)
chain: MAALKEDRSYGLSCGRVSDGSKVSVFHVKLTDSALRAFESYRARQDSVSLRPSIRFQGSQGHISIPQPDCPAEARTFSFYLSNIGRDNPQGSFDCIQQYVSSHGEVHLDCLGSIQDKITVCATDDSYQKARQSMAQAEEETRSRSAIVIKAGGRYLGKKVQFRKPAPGATDAVPSRKRATPINLASAIRKSGASAVSGGSGVSQRPFRDRVLHLLALRPYRKAELLLRLQKDGLTQADKDALDGLLQQVANMSAKDGTCTLQDCMYKDVQKDWPGYSEGDQQLLKRVLVRKLCQPQSTGSLLGDPAASSPPGERGRSASPPQKRLQPPDFIDPLANKKPRISHFTQRAQPAVNGKLGVPNGREALLPTPGPPASTDTLSSSTHLPPRLEPPRAHDPLADVSNDLGHSGRDCEHGEAAAPAPTVRLGLPLLTDCAQPSRPHGSPSRSKPKKKSKKHKDKERAAEDKPRAQLPDCAPATHATPGAPADTPGLNGTCSVSSVPTSTSETPDYLLKYAAISSSEQRQSYKNDFNAEYSEYRDLHARIERITRRFTQLDAQLRQLSQGSEEYETTRGQILQEYRKIKKTNTNYSQEKHRCEYLHSKLAHIKRLIAEYDQRQLQAWP

The binders below were run against FLAG-tagged GAL4–AF4-2C fusion protein (human) (assay: co-IP; fanChIP–WB: chromatin fraction of 293T or 293T–LUC cells (cytoskeleton buffer extraction, MNase, lysis buffer), anti-FLAG M2 beads, five washes, western blot; SL1 components endogenous or exogenously expressed (one by one or all together); for the MLL fusions with co-expressed xAF4 and MENIN-HA).

binding, binds:
B1
B2
B3
B4
B5

What follows are binders tested against FLAG-tagged GAL4–AF4-2N fusion protein (human) in the same assay as above.

binding, binds:
B6
